# Laboratory results as given in article PMC6546274.
# Sequences of proteins named here, by UniProt entry; tags and fusion partners are left off.
# UniProt P10085: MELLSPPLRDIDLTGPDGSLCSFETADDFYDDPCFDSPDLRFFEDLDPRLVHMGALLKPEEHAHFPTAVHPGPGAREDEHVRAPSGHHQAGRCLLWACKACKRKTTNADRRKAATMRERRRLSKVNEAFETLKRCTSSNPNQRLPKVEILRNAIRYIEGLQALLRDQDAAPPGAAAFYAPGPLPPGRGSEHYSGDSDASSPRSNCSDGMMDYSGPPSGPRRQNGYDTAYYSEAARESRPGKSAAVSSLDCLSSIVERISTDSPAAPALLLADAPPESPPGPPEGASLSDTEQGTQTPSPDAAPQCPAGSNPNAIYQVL
# Results are given in words; binding and its absence hold for the method and conditions named. Binding seen in cells or lysates may run through a third protein. Some binding calls cover weakened binding; strength is not graded here. For part of these data: Where a sequence is shown, tags or fusion partners need not be part of it.
# T1: myogenin (MYOG), exogenous expression construct (UniProt P12979)
# T1 sequence: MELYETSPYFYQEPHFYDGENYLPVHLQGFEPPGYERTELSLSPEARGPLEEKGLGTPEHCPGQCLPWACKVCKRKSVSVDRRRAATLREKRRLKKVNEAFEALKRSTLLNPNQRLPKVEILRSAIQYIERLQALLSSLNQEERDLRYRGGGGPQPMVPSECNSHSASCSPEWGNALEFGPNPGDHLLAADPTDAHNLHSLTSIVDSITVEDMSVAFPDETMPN
# T2: myogenin (MYOG), endogenous, C2C12 cells (mouse (endogenous in C2C12)) (UniProt P12979)
# T2 sequence: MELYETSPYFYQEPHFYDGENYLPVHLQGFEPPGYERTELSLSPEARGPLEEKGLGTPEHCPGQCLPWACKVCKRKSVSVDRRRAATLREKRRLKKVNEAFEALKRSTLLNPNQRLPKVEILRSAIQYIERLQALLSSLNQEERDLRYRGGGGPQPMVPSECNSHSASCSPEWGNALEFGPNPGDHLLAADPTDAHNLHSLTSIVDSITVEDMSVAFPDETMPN
# What was measured:
# [1] = target: MyoD (MYOD1), exogenous expression construct (UniProt P10085); experiment: co-IP; HEK293 cells co-transfected with expression constructs; whole cell extracts in RIPA buffer, 150-300 ug extract, 1 ug antibody (anti-MYOG F5D or anti-MYOD1 5.8A) overnight at 4 C, protein A beads; western blot with anti-TCEA3
# [2] = target: T1, myogenin (MYOG), exogenous expression construct; experiment: as above
# [3] = target: T2, myogenin (MYOG), endogenous, C2C12 cells (mouse (endogenous in C2C12)); experiment: co-IP; endogenous proteins; extracts of differentiated C2C12 cells (D4 for anti-MYOG, D2 for anti-RPB1) in RIPA buffer, 1 ug antibody overnight at 4 C, protein A beads; western blot with anti-TCEA3
Binder,binding [1],binding [2],binding [3]
"TCEA3 (exogenous, expression construct in pEF6/V5 His TOPO) (protein, UniProt P23881 1-347) MGLEEELLRIAKKLEKMVSRKKTEGALDLLKKLNSCQMSIQLLQTTRIGVAVNGVRKHCSDKEVVSLAKVLIKNWKRLLDSPRTTKGEREEREKAKKEKGLGCSDWKPEAGLSPPRKKGGGEPKTRRDSVDSRSSTTSSPKRPSLERSNSSKSKVETPTTPSSPSTPTFAPAVCLLAPCYLTGDSVRDKCVEMLSAALKAEDNFKDYGVNCDKLASEIEDHIYQELKSTDMKYRNRVRSRISNLKDPRNPGLRRNVLSGAISPELIAKMTAEEMASDELRELRNAMTQEAIREHQMAKTGGTTTDLLRCSKCKKKNCTYNQVQTRSADEPMTTFVLCNECGNRWKFC",binds,binds,
"TCEA3 (endogenous, C2C12 cells) (protein, UniProt P23881 1-347) MGLEEELLRIAKKLEKMVSRKKTEGALDLLKKLNSCQMSIQLLQTTRIGVAVNGVRKHCSDKEVVSLAKVLIKNWKRLLDSPRTTKGEREEREKAKKEKGLGCSDWKPEAGLSPPRKKGGGEPKTRRDSVDSRSSTTSSPKRPSLERSNSSKSKVETPTTPSSPSTPTFAPAVCLLAPCYLTGDSVRDKCVEMLSAALKAEDNFKDYGVNCDKLASEIEDHIYQELKSTDMKYRNRVRSRISNLKDPRNPGLRRNVLSGAISPELIAKMTAEEMASDELRELRNAMTQEAIREHQMAKTGGTTTDLLRCSKCKKKNCTYNQVQTRSADEPMTTFVLCNECGNRWKFC",,,binds
